Assay results published in doi:10.1101/2024.03.15.585069.
These are yes or no findings as the source states them, for the method shown. In cells and extracts the contact can be indirect. Some binding calls cover weakened binding; strength is not graded here.

T1: nEYFP-ICU11 (Arabidopsis thaliana) (UniProt Q3ED68)
T1 sequence: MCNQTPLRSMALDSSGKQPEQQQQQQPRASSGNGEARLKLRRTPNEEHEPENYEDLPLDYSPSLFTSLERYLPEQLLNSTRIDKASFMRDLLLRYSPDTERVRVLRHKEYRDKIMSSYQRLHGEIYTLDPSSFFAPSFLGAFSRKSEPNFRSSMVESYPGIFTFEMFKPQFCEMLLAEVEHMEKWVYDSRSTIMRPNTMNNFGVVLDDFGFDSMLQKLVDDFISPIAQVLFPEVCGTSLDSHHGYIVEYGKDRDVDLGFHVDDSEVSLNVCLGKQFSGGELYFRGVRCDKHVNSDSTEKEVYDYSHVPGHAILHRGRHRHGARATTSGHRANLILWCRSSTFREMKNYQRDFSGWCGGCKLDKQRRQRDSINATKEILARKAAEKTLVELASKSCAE

T2: nEYFP-CP2 (Arabidopsis thaliana) (UniProt P0DO23)
T2 sequence: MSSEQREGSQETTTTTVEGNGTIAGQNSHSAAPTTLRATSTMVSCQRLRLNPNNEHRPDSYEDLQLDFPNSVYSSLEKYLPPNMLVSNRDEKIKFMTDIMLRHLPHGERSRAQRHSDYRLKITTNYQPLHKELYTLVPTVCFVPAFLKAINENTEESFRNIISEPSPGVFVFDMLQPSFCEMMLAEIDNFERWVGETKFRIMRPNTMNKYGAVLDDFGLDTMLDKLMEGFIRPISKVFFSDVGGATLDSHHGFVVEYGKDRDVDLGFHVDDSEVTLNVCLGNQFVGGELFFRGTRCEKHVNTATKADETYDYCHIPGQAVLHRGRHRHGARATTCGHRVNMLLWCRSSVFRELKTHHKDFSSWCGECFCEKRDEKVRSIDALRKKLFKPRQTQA

B1: cEYFP-TRB3 (protein, UniProt Q9M2X3 1-295)
chain: MGAPKLKWTPEEETALKAGVLKHGTGKWRTILSDPVYSTILKSRSNVDLKDKWRNISVTALWGSRKKAKLALKRTPLSGSRQDDNATAITIVSLANGDVGGQQIDAPSPPAGSCEPPRPSTSVDKIILEAITSLKRPFGPDGKSILMYIEENFKMQPDMKRLVTSRLKYLTNVGTLVKKKHKYRISQNYMAEGEGQRSPQLLLEGNKENTPKPEENGVKNLTKSQVGGEVMIMGMTEKEAAAAAARAVAEAEFAMAEAEEAAREADKAEAEAEAAHIFAKAAMKAVKYRMHSQTR
B2: cEYFP-TRB1 (protein, UniProt Q8VWK4 1-300)
chain: MGAPKQKWTQEEESALKSGVIKHGPGKWRTILKDPEFSGVLYLRSNVDLKDKWRNMSVMANGWGSREKSRLAVKRTFSLPKQEENSLALTNSLQSDEENVDATSGLQVSSNPPPRRPNVRLDSLIMEAIATLKEPGGCNKTTIGAYIEDQYHAPPDFKRLLSTKLKYLTSCGKLVKVKRKYRIPNSTPLSSHRRKGLGVFGGKQRTSSLPSPKTDIDEVNFQTRSQIDTEIARMKSMNVHEAAAVAAQAVAEAEAAMAEAEEAAKEAEAAEAEAEAAQAFAEEASKTLKGRNICKMMIRA
B3: cEYFP-CP2 (protein, UniProt P0DO23 1-394)
chain: MSSEQREGSQETTTTTVEGNGTIAGQNSHSAAPTTLRATSTMVSCQRLRLNPNNEHRPDSYEDLQLDFPNSVYSSLEKYLPPNMLVSNRDEKIKFMTDIMLRHLPHGERSRAQRHSDYRLKITTNYQPLHKELYTLVPTVCFVPAFLKAINENTEESFRNIISEPSPGVFVFDMLQPSFCEMMLAEIDNFERWVGETKFRIMRPNTMNKYGAVLDDFGLDTMLDKLMEGFIRPISKVFFSDVGGATLDSHHGFVVEYGKDRDVDLGFHVDDSEVTLNVCLGNQFVGGELFFRGTRCEKHVNTATKADETYDYCHIPGQAVLHRGRHRHGARATTCGHRVNMLLWCRSSVFRELKTHHKDFSSWCGECFCEKRDEKVRSIDALRKKLFKPRQTQA
B4: cEYFP-SWN (protein, UniProt Q9ZSM8 1-856)
chain: MVTDDSNSSGRIKSHVDDDDDGEEEEDRLEGLENRLSELKRKIQGERVRSIKEKFEANRKKVDAHVSPFSSAASSRATAEDNGNSNMLSSRMRMPLCKLNGFSHGVGDRDYVPTKDVISASVKLPIAERIPPYTTWIFLDRNQRMAEDQSVVGRRQIYYEQHGGETLICSDSEEEPEPEEEKREFSEGEDSIIWLIGQEYGMGEEVQDALCQLLSVDASDILERYNELKLKDKQNTEEFSNSGFKLGISLEKGLGAALDSFDNLFCRRCLVFDCRLHGCSQPLISASEKQPYWSDYEGDRKPCSKHCYLQLKAVREVPETCSNFASKAEEKASEEECSKAVSSDVPHAAASGVSLQVEKTDIGIKNVDSSSGVEQEHGIRGKREVPILKDSNDLPNLSNKKQKTAASDTKMSFVNSVPSLDQALDSTKGDQGGTTDNKVNRDSEADAKEVGEPIPDNSVHDGGSSICQPHHGSGNGAIIIAEMSETSRPSTEWNPIEKDLYLKGVEIFGRNSCLIARNLLSGLKTCLDVSNYMRENEVSVFRRSSTPNLLLDDGRTDPGNDNDEVPPRTRLFRRKGKTRKLKYSTKSAGHPSVWKRIAGGKNQSCKQYTPCGCLSMCGKDCPCLTNETCCEKYCGCSKSCKNRFRGCHCAKSQCRSRQCPCFAAGRECDPDVCRNCWVSCGDGSLGEAPRRGEGQCGNMRLLLRQQQRILLGKSDVAGWGAFLKNSVSKNEYLGEYTGELISHHEADKRGKIYDRANSSFLFDLNDQYVLDAQRKGDKLKFANHSAKPNCYAKVMFVAGDHRVGIFANERIEASEELFYDYRYGPDQAPVWARKPEGSKKDDSAITHRRARKHQSH
B5: cEYFP-CLF (protein, UniProt P93831 1-902)
chain: MASEASPSSSATRSEPPKDSPAEERGPASKEVSEVIESLKKKLAADRCISIKKRIDENKKNLFAITQSFMRSSMERGGSCKDGSDLLVKRQRDSPGMKSGIDESNNNRYVEDGPASSGMVQGSSVPVKISLRPIKMPDIKRLSPYTTWVFLDRNQRMTEDQSVVGRRRIYYDQTGGEALICSDSEEEAIDDEEEKRDFLEPEDYIIRMTLEQLGLSDSVLAELASFLSRSTSEIKARHGVLMKEKEVSESGDNQAESSLLNKDMEGALDSFDNLFCRRCLVFDCRLHGCSQDLIFPAEKPAPWCPPVDENLTCGANCYKTLLKSGRFPGYGTIEGKTGTSSDGAGTKTTPTKFSSKLNGRKPKTFPSESASSNEKCALETSDSENGLQQDTNSDKVSSSPKVKGSGRRVGRKRNKNRVAERVPRKTQKRQKKTEASDSDSIASGSCSPSDAKHKDNEDATSSSQKHVKSGNSGKSRKNGTPAEVSNNSVKDDVPVCQSNEVASELDAPGSDESLRKEEFMGETVSRGRLATNKLWRPLEKSLFDKGVEIFGMNSCLIARNLLSGFKSCWEVFQYMTCSENKASFFGGDGLNPDGSSKFDINGNMVNNQVRRRSRFLRRRGKVRRLKYTWKSAAYHSIRKRITEKKDQPCRQFNPCNCKIACGKECPCLLNGTCCEKYCGCPKSCKNRFRGCHCAKSQCRSRQCPCFAADRECDPDVCRNCWVIGGDGSLGVPSQRGDNYECRNMKLLLKQQQRVLLGISDVSGWGAFLKNSVSKHEYLGEYTGELISHKEADKRGKIYDRENCSFLFNLNDQFVLDAYRKGDKLKFANHSPEPNCYAKVIMVAGDHRVGIFAKERILAGEELFYDYRYEPDRAPAWAKKPEAPGSKKDENVTPSVGRPKKLA

Each binder was assayed against T1, nEYFP-ICU11 (Arabidopsis thaliana) (assay: split reporter).

| Binder | binding |
| --- | --- |
| B1 | binds |
| B2 | binds |
| B3 | no binding |
| B4 | binds |

These binders were tested against T2, nEYFP-CP2 (Arabidopsis thaliana) (assay: split reporter).

| Binder | binding |
| --- | --- |
| B5 | binds |
| B4 | binds |
